Earlier results in US20010006974A1, “COMBINATION THERAPY FOR LYMPHOPROLIFERATIVE DISEASES” (priority 1999, published 2001).
At least one structure is not confirmed: it was looked up by name or label, or the drawing left a doubt.

Test system: CLL
Details: untreated CLL patients

## Nc1nc(F)nc2c1ncn2[C@@H]1O[C@H](CO)[C@@H](O)[C@@H]1O [fludarabine]
  response rate: 78%
